{"source": "paper PMC11267380", "about": "“USP25 Elevates SHLD2‐Mediated DNA Double‐Strand Break Repair and Regulates Chemoresponse in Cancer” (Advanced Science, 2024)", "binders": {"B1": {"name": "SHLD3 (protein, UniProt Q6ZNX1 1-250)", "chain": "MTTEVILHYRPCESDPTQLPKIAEKAIQDFPTRPLSRFIPWFPYDGSKLPLRPKRSPPVISEEAAEDVKQYLTISEHDAKSHSYDCTVDLLEFQPSLKKQHLTWSHTLKEQTNSGNLGKQSEKGKQHKRRSWSISLPSNNCTKNVSPLSKKLQDSLKALNLHSLYRARWTIEHTICNSQTLEDIWTKLNQIIRHNELPSCNATIQRHLGQIWVFCDIMYCEYVGSLLKGRLALTGKINLFVHKYGVIFSM"}}, "molecular_target": "MYC-SHLD2 full length", "experiment": "co-IP; MYC-SHLD2 constructs transfected (HEK293T, RKO; control or USP25 knockdown cells); MYC immunoprecipitated (anti-MYC affinity gel), immunoblot; cells untreated or treated with IR (10 Gy), 5-Fu (20 uM) or cisplatin (20 uM)", "note": "No constants are given. Whether binding was seen depends on the method and setting. Binding seen in cells or lysates may run through a third protein. A result given as binding can be weak or reduced; the word gives no strength."}
{"binder": "B1", "values": [{"measurement": "binding", "result": "binds"}]}
